Measurements published in the supplement of paper PMC12823440, “Inhibitors supercharge kinase turnover through native proteolytic circuits” (Nature, 2025).
Structures can show the parent of a compound that is named as a salt. Some of the results follow. The calls rarely recur for the same compound in another form.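 Kinases were expressed as nanoluciferase fusions in K562 cells and luminescence was read every 4 h between 2 and 18 h as percent of control, DMSO set to 100% and a positive control to 0%. A time point counts as decreased when the signal drops significantly (2 sigma). The hit call is the authors' own, does not follow from the count of time points alone, and its rule is not shown.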

The chains behind the UniProt entries cited, without tags or fusion partners. Where a name states a change or a piece, a line headed by the entry shows the natural chain unless it says otherwise.
UniProt P31749: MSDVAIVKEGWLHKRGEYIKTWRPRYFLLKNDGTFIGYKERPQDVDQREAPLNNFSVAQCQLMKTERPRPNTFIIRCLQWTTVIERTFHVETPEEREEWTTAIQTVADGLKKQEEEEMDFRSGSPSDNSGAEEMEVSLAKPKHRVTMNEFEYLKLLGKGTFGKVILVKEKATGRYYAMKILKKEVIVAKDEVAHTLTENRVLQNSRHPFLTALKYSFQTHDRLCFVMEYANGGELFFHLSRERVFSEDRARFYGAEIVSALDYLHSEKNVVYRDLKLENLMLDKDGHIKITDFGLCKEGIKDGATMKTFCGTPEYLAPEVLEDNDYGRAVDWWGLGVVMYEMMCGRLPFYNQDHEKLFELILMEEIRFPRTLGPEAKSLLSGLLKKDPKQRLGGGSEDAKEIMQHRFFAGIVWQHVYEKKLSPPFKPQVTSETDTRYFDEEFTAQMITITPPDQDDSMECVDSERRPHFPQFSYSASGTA
UniProt P10398: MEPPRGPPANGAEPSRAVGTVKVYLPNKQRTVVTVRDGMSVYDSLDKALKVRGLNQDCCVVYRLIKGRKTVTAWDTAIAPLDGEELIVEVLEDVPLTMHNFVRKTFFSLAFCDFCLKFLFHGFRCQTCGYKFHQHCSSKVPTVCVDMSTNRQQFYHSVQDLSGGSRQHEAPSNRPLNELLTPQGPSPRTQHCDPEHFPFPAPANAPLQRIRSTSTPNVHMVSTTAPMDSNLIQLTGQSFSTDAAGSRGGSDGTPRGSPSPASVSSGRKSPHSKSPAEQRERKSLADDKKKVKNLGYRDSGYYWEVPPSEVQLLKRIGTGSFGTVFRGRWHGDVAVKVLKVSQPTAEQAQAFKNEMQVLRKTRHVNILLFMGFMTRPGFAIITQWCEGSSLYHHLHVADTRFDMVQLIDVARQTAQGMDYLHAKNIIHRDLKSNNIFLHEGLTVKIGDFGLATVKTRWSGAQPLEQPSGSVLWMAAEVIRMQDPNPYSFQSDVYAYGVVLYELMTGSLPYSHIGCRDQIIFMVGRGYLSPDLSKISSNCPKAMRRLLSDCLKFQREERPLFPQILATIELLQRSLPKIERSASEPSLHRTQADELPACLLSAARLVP
UniProt O14965: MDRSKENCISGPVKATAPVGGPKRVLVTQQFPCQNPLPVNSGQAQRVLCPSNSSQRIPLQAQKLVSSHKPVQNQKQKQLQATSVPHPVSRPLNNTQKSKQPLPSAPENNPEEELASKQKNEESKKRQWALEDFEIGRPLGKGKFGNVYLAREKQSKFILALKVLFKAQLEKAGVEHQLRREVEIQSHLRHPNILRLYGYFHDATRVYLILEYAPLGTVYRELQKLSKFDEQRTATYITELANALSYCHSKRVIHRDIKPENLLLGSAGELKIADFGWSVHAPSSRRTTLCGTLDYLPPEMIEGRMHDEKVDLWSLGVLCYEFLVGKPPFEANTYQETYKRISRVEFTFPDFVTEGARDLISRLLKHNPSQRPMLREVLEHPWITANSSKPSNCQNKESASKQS
UniProt Q96GD4, whole entry: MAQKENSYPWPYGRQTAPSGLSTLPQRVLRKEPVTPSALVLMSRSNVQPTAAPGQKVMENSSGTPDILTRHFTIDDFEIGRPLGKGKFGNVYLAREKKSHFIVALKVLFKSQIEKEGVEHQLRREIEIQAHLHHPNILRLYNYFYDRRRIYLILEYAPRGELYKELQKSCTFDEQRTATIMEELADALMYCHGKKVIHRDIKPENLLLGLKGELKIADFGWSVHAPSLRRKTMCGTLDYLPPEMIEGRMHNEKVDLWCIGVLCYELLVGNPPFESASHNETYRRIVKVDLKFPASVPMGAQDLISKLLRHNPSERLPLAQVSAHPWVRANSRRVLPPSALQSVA
UniProt Q9UQB9: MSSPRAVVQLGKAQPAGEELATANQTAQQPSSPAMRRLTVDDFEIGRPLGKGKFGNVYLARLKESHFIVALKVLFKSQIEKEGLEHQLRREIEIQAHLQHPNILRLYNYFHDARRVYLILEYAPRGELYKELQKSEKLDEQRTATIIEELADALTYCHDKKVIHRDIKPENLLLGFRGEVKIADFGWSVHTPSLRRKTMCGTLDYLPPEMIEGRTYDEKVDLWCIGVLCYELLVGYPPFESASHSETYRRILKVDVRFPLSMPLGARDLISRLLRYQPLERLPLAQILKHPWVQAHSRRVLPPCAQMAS
UniProt P51451: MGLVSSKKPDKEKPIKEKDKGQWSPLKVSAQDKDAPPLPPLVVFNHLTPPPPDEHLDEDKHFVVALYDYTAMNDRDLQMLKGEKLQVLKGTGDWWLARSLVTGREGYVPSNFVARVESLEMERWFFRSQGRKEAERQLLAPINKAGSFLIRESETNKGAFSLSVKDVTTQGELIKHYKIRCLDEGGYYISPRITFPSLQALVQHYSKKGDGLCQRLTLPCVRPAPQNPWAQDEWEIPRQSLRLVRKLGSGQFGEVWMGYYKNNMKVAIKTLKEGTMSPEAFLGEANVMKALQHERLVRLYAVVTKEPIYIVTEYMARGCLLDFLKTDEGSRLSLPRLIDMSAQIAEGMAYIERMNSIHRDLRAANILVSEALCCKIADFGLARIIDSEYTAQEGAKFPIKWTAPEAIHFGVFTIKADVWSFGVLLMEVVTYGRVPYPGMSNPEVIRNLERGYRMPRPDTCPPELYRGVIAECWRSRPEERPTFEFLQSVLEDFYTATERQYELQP
UniProt P51813: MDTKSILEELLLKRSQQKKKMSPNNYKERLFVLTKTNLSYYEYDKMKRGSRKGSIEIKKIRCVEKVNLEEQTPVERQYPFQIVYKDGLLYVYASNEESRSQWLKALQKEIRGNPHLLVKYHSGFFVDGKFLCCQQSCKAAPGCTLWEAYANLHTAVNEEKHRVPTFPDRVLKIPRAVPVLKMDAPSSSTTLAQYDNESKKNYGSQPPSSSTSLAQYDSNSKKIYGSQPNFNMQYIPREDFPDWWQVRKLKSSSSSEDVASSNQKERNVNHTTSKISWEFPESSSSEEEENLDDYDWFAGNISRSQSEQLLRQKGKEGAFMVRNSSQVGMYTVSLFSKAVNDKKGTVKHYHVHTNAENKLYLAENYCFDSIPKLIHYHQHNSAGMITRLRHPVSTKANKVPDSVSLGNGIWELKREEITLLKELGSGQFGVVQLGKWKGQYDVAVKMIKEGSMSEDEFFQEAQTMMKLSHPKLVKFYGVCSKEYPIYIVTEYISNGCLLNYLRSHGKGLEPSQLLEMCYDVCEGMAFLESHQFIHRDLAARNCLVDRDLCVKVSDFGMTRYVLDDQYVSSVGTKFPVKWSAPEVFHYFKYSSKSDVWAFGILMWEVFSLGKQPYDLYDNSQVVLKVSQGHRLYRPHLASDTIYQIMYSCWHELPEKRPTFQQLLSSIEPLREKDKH
UniProt Q06187: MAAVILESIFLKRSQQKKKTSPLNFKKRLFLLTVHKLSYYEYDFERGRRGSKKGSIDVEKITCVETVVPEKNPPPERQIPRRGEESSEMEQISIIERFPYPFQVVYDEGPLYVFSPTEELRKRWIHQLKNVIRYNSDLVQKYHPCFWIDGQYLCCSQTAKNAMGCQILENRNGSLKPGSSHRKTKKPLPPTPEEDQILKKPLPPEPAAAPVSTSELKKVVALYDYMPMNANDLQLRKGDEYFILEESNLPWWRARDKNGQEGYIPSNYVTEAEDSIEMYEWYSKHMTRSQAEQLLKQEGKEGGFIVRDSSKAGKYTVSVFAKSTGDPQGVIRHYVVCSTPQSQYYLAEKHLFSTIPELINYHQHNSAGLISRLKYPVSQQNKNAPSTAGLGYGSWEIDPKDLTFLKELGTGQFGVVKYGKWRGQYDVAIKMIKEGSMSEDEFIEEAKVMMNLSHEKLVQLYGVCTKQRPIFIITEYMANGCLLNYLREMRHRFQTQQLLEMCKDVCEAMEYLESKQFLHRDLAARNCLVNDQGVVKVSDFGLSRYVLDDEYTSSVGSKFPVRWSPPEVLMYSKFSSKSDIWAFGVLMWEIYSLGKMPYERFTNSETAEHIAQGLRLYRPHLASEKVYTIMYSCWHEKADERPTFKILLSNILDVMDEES
UniProt Q9UQM7, whole entry: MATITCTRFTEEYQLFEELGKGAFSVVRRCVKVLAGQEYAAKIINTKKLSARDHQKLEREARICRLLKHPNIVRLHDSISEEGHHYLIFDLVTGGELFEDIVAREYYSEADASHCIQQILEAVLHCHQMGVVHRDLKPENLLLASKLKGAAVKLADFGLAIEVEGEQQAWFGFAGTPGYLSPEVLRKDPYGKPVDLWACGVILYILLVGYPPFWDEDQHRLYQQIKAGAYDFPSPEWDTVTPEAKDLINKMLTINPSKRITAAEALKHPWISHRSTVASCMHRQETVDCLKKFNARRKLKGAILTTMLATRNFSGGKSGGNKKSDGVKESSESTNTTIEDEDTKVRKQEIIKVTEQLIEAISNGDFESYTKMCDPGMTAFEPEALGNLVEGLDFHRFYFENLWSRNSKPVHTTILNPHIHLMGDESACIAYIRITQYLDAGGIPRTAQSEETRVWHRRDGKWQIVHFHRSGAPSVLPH
UniProt Q13555: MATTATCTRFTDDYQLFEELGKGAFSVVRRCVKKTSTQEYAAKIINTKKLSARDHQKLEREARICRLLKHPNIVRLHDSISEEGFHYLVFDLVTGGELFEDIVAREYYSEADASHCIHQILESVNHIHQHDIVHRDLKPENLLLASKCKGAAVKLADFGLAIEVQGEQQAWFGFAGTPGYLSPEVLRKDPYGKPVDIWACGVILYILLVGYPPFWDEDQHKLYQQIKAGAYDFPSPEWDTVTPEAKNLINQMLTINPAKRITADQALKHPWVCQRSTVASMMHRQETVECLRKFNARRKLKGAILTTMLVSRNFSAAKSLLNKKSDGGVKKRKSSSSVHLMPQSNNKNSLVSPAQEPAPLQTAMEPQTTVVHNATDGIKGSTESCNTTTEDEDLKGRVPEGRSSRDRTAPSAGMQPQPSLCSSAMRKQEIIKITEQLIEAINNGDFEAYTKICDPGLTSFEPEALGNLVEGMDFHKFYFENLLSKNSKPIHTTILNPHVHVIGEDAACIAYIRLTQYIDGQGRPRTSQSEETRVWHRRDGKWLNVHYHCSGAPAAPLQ
UniProt Q00526: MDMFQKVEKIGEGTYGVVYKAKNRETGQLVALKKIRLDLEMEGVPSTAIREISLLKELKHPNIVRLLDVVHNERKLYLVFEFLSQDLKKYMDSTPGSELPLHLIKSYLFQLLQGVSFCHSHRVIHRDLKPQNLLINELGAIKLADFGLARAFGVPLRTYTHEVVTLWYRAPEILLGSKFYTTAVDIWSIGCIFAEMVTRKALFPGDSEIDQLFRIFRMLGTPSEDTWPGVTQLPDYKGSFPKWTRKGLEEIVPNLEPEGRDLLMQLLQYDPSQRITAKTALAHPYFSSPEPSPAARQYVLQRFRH
UniProt P11802: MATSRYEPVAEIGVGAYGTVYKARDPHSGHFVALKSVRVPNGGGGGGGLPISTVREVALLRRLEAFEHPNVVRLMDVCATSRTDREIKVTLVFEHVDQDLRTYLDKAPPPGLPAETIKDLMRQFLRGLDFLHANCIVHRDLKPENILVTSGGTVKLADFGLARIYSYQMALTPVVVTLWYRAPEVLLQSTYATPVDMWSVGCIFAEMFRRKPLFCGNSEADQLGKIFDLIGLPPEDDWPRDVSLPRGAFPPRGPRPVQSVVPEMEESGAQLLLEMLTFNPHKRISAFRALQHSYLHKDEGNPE
UniProt Q00535, whole entry, looked up: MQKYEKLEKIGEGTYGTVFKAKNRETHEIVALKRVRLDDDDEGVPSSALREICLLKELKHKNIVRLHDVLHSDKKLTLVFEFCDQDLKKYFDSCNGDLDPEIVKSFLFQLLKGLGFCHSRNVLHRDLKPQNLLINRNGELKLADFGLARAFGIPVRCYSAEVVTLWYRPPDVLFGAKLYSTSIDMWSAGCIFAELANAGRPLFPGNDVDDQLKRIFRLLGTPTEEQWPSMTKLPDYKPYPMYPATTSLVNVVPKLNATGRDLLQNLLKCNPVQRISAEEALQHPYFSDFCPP
UniProt Q00534, whole entry: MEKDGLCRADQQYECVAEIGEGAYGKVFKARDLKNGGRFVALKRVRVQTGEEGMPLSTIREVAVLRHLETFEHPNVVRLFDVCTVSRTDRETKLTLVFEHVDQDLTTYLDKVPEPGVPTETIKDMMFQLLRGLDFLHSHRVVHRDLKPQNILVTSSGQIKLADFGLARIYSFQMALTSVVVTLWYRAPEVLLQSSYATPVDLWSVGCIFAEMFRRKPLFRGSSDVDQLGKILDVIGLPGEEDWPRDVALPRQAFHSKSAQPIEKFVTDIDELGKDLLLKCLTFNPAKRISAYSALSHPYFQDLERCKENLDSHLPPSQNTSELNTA

Columns and labels:
Assay in all cases: kinase-Nluc reporter destabilization hit call (1 = scored as downregulated) (binary); higher = compound decreases kinase abundance
Details in all cases: K562; 2-18 h
[1] = molecular target: ABL1 (UniProt P00519)
[2] = molecular target: AKT1 (UniProt P31749)
[3] = molecular target: ALK (UniProt Q9UM73)
[4] = molecular target: ARAF (UniProt P10398)
[5] = molecular target: AURKA (UniProt O14965)
[6] = molecular target: AURKB (UniProt Q96GD4)
[7] = molecular target: AURKC (UniProt Q9UQB9)
[8] = molecular target: BLK (UniProt P51451)
[9] = molecular target: BMX (UniProt P51813)
[10] = molecular target: BRAF (UniProt P15056)
[11] = test system: BRAF_V600E
[12] = molecular target: BTK (UniProt Q06187)
[13] = molecular target: CAMK2A (UniProt Q9UQM7)
[14] = molecular target: CAMK2G (UniProt Q13555)
[15] = molecular target: CDK10 (UniProt Q15131)
[16] = molecular target: CDK2 (UniProt P24941)
[17] = molecular target: CDK3 (UniProt Q00526)
[18] = molecular target: CDK4 (UniProt P11802)
[19] = molecular target: CDK5 (UniProt Q00535)
[20] = molecular target: CDK6 (UniProt Q00534)

Measured: kinase-Nluc reporter destabilization hit call

CSc1ccc(CN2CCCC(Nc3ccc4[nH]ncc4c3)C2)cc1 (stereo not given) [Rho-Kinase-IN-1] (10 µM)
inactive: [1] 0 | [2] 0 | [3] 0 | [4] 0 | [5] 0 | [6] 0 | [7] 0 | [8] 0 | [9] 0 | [10] 0 | [11] 0 | [12] 0 | [13] 0 | [14] 0 | [15] 0 | [16] 0 | [17] 0 | [18] 0 | [19] 0 | [20] 0

C[C@@H]1COCCN1c1cc(=O)n2c(n1)N(Cc1cncc(Cl)c1)[C@H](C(F)(F)F)CC2 (10 µM)
inactive: [1] 0 | [2] 0 | [3] 0 | [4] 0 | [5] 0 | [6] 0 | [7] 0 | [8] 0 | [9] 0 | [10] 0 | [11] 0 | [12] 0 | [13] 0 | [14] 0 | [15] 0 | [16] 0 | [17] 0 | [18] 0 | [19] 0 | [20] 0

O[C@H]1CC[C@H](Nc2ncc3nc(Nc4c(F)cc(F)cc4F)n([C@H]4CCOC4)c3n2)CC1 [Tanzisertib] (10 µM)
inactive: [1] 0 | [2] 0 | [3] 0 | [4] 0 | [5] 0 | [6] 0 | [7] 0 | [8] 0 | [9] 0 | [10] 0 | [11] 0 | [12] 0 | [13] 0 | [14] 0 | [15] 0 | [16] 0 | [17] 0 | [18] 0 | [19] 0 | [20] 0

C=CS(=O)(=O)c1ccc(Nc2nc(OCC3CCCCC3)c3[nH]cnc3n2)cc1 (2.5 µM)
inactive: [1] 0 | [2] 0 | [3] 0 | [4] 0 | [5] 0 | [6] 0 | [7] 0 | [8] 0 | [9] 0 | [10] 0 | [11] 0 | [12] 0 | [13] 0 | [14] 0 | [15] 0 | [16] 0 | [17] 0 | [18] 0 | [19] 0 | [20] 0

Cc1ccc(-c2ncn(-c3ccc(Nc4nccc(-c5cccc(N6CCOCC6)c5)n4)cc3)n2)cn1 (10 µM)
inactive: [1] 0 | [2] 0 | [3] 0 | [4] 0 | [5] 0 | [6] 0 | [7] 0 | [8] 0 | [9] 0 | [10] 0 | [11] 0 | [12] 0 | [13] 0 | [14] 0 | [15] 0 | [16] 0 | [17] 0 | [18] 0 | [19] 0 | [20] 0

CCOC(=O)c1c2c3c(cccc3[nH]c1=O)C(=O)c1ccccc1-2 (10 µM)
inactive: [1] 0 | [2] 0 | [3] 0 | [4] 0 | [5] 0 | [6] 0 | [7] 0 | [8] 0 | [9] 0 | [10] 0 | [11] 0 | [12] 0 | [13] 0 | [14] 0 | [15] 0 | [16] 0 | [17] 0 | [18] 0 | [19] 0 | [20] 0

CC(=O)Nc1nc(C)c(-c2nc(N3CCCC(O)C3)no2)s1 (stereo not given) (10 µM)
inactive: [1] 0 | [2] 0 | [3] 0 | [4] 0 | [5] 0 | [6] 0 | [7] 0 | [8] 0 | [9] 0 | [10] 0 | [11] 0 | [12] 0 | [13] 0 | [14] 0 | [15] 0 | [16] 0 | [17] 0 | [18] 0 | [19] 0 | [20] 0

O=C(O)CCc1ccc(NCc2cccc(Oc3ccccc3)c2)cc1 (10 µM)
inactive: [1] 0 | [2] 0 | [3] 0 | [4] 0 | [5] 0 | [6] 0 | [7] 0 | [8] 0 | [9] 0 | [10] 0 | [11] 0 | [12] 0 | [13] 0 | [14] 0 | [15] 0 | [16] 0 | [17] 0 | [18] 0 | [19] 0 | [20] 0

Nc1[nH]c(=O)nc2c1ncn2[C@@H]1O[C@H](CO)[C@@H](O)[C@H]1O [Crotonoside] (10 µM)
inactive: [1] 0 | [2] 0 | [3] 0 | [4] 0 | [5] 0 | [6] 0 | [7] 0 | [8] 0 | [9] 0 | [10] 0 | [11] 0 | [12] 0 | [13] 0 | [14] 0 | [15] 0 | [16] 0 | [17] 0 | [18] 0 | [19] 0 | [20] 0

Random excerpt: 2 records from the list, in no set order.
Cc1ccc(-c2ncn(-c3ccc(Nc4nccc(-c5cccc(N6CCOCC6)c5)n4)cc3)n2)cn1 (10 µM)
inactive: [1] 0 | [2] 0 | [3] 0 | [4] 0 | [5] 0 | [6] 0 | [7] 0 | [8] 0 | [9] 0 | [10] 0 | [11] 0 | [12] 0 | [13] 0 | [14] 0 | [15] 0 | [16] 0 | [17] 0 | [18] 0 | [19] 0 | [20] 0

CCOC(=O)c1c2c3c(cccc3[nH]c1=O)C(=O)c1ccccc1-2 (10 µM)
inactive: [1] 0 | [2] 0 | [3] 0 | [4] 0 | [5] 0 | [6] 0 | [7] 0 | [8] 0 | [9] 0 | [10] 0 | [11] 0 | [12] 0 | [13] 0 | [14] 0 | [15] 0 | [16] 0 | [17] 0 | [18] 0 | [19] 0 | [20] 0

Remaining list, next part

Cn1ncc(Cl)c1-c1cc(C(=O)N[C@H](CN)Cc2ccc(F)c(F)c2)sc1Cl (10 µM)
inactive: [1] 0 | [2] 0 | [3] 0 | [4] 0 | [5] 0 | [6] 0 | [7] 0 | [8] 0 | [9] 0 | [10] 0 | [11] 0 | [12] 0 | [13] 0 | [14] 0 | [15] 0 | [16] 0 | [17] 0 | [18] 0 | [19] 0 | [20] 0

CCOc1nc(Nc2ccc(C(=O)N3CCOCC3)cc2OC)nc2[nH]ccc12 [LRRK2 inhibitor 1] (2.5 µM)
inactive: [1] 0 | [2] 0 | [3] 0 | [4] 0 | [5] 0 | [6] 0 | [7] 0 | [8] 0 | [9] 0 | [10] 0 | [11] 0 | [12] 0 | [13] 0 | [14] 0 | [15] 0 | [16] 0 | [17] 0 | [18] 0 | [19] 0 | [20] 0

C=C[C@H]1[C@H](O[C@@H]2O[C@H](CO)[C@@H](O)[C@H](O)[C@H]2OC(=O)c2c(O)cc(O)cc2-c2cccc(O)c2)OC=C2C(=O)OCC[C@H]21 [Amarogentin] (10 µM)
inactive: [1] 0 | [2] 0 | [3] 0 | [4] 0 | [5] 0 | [6] 0 | [7] 0 | [8] 0 | [9] 0 | [10] 0 | [11] 0 | [12] 0 | [13] 0 | [14] 0 | [15] 0 | [16] 0 | [17] 0 | [18] 0 | [19] 0 | [20] 0

COc1cc(C(=O)N2CCC(N3CCN(C)CC3)CC2)ccc1Nc1ncc2c(n1)N(C)c1ccccc1C(=O)N2C (10 µM)
inactive: [1] 0 | [2] 0 | [3] 0 | [4] 0 | [5] 0 | [6] 0 | [7] 0 | [8] 0 | [9] 0 | [10] 0 | [11] 0 | [12] 0 | [13] 0 | [14] 0 | [15] 0 | [16] 0 | [17] 0 | [18] 0 | [19] 0 | [20] 0

N=C(N)NC(=N)NCCc1ccccc1 [Phenformin (hydrochloride)] (10 µM)
inactive: [1] 0 | [2] 0 | [3] 0 | [4] 0 | [5] 0 | [6] 0 | [7] 0 | [8] 0 | [9] 0 | [10] 0 | [11] 0 | [12] 0 | [13] 0 | [14] 0 | [15] 0 | [16] 0 | [17] 0 | [18] 0 | [19] 0 | [20] 0

Cc1nc(NC(=O)NCCc2nnn(CCF)n2)sc1-c1ccc(S(C)(=O)=O)c(F)c1 (10 µM)
inactive: [1] 0 | [2] 0 | [3] 0 | [4] 0 | [5] 0 | [6] 0 | [7] 0 | [8] 0 | [9] 0 | [10] 0 | [11] 0 | [12] 0 | [13] 0 | [14] 0 | [15] 0 | [16] 0 | [17] 0 | [18] 0 | [19] 0 | [20] 0

Cc1cc(C(C)Nc2ccccc2)c2nc(N3CCOCC3)cc(=O)n2c1 (stereo not given) (10 µM)
inactive: [1] 0 | [2] 0 | [3] 0 | [4] 0 | [5] 0 | [6] 0 | [7] 0 | [8] 0 | [9] 0 | [10] 0 | [11] 0 | [12] 0 | [13] 0 | [14] 0 | [15] 0 | [16] 0 | [17] 0 | [18] 0 | [19] 0 | [20] 0

COc1cc(-c2cc(-c3cc(OC)c(OC)c(OC)c3)cc(C(F)P(=O)(OCOC(=O)C(C)(C)C)OCOC(=O)C(C)(C)C)c2)cc(OC)c1OC (stereo not given) [Stafia-1-dipivaloyloxymethyl ester] (2.5 µM)
inactive: [1] 0 | [2] 0 | [3] 0 | [4] 0 | [5] 0 | [6] 0 | [7] 0 | [8] 0 | [9] 0 | [10] 0 | [11] 0 | [12] 0 | [13] 0 | [14] 0 | [15] 0 | [16] 0 | [17] 0 | [18] 0 | [19] 0 | [20] 0

CCc1ccc(C(=O)COc2ccc(CC3SC(=O)NC3=O)cc2)nc1 (stereo not given) (10 µM)
inactive: [1] 0 | [2] 0 | [3] 0 | [4] 0 | [5] 0 | [6] 0 | [7] 0 | [8] 0 | [9] 0 | [10] 0 | [11] 0 | [12] 0 | [13] 0 | [14] 0 | [15] 0 | [16] 0 | [17] 0 | [18] 0 | [19] 0 | [20] 0
